For the assay, the target named is T1, Bio-Qpep, N-terminally biotinylated Gq peptide.
T1 sequence (peptide, N-terminal biotin): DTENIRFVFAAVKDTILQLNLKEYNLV
The assay can be described thus: pull-down; β2AR–mCerulean in membranes with 100 µM isoproterenol and 10 µM N-terminally biotinylated Gq peptide, 30 min on ice; streptavidin-coated magnetic beads; percent mCerulean depleted from the supernatant; only the target purified.

These are yes or no findings as the source states them, for the method shown. In cells and extracts the contact can be indirect. Some entries that bind do so weakly or less than the wild type.

Consider “β2AR(∆ICL3)–mCerulean (∆236–257) (from UniProt P07550 1-413) (receptor)”, for which the binding result is “binds”.

As to “β2AR–mCerulean, wild type (from UniProt P07550 1-413) (receptor)”, the binding entry is on record as “binds weakly”.

(Values after paper PMC10033409, “Autoregulation of GPCR signalling through the third intracellular loop” (Nature, 2023).)
